Test results published in article PMC9270402.
These are yes or no findings as the source states them, for the method shown. In cells and extracts the contact can be indirect. Some binding calls cover weakened binding; strength is not graded here.

Sequences of proteins named here, by UniProt entry; tags and fusion partners are left off. Residues count along the entry.
UniProt P48436: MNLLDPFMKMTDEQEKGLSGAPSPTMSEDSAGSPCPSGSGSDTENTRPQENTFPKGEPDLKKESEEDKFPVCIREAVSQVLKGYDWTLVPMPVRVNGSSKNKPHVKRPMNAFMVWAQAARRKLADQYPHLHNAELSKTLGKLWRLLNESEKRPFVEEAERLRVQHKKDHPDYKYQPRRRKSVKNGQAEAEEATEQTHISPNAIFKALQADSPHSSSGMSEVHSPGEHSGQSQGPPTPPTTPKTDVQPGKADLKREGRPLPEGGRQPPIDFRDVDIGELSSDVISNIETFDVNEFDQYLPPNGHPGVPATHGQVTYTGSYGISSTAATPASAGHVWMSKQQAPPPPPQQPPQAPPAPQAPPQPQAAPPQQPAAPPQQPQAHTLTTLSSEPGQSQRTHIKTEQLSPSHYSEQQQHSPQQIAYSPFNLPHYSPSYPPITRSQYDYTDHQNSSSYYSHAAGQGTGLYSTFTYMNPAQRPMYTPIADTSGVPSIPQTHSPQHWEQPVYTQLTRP
Mast4-PDZ (truncated Mast4 construct containing a DUF, kinase, and PDZ domain; a.a.1-a.a.1229) (O15021, residues 1-1229): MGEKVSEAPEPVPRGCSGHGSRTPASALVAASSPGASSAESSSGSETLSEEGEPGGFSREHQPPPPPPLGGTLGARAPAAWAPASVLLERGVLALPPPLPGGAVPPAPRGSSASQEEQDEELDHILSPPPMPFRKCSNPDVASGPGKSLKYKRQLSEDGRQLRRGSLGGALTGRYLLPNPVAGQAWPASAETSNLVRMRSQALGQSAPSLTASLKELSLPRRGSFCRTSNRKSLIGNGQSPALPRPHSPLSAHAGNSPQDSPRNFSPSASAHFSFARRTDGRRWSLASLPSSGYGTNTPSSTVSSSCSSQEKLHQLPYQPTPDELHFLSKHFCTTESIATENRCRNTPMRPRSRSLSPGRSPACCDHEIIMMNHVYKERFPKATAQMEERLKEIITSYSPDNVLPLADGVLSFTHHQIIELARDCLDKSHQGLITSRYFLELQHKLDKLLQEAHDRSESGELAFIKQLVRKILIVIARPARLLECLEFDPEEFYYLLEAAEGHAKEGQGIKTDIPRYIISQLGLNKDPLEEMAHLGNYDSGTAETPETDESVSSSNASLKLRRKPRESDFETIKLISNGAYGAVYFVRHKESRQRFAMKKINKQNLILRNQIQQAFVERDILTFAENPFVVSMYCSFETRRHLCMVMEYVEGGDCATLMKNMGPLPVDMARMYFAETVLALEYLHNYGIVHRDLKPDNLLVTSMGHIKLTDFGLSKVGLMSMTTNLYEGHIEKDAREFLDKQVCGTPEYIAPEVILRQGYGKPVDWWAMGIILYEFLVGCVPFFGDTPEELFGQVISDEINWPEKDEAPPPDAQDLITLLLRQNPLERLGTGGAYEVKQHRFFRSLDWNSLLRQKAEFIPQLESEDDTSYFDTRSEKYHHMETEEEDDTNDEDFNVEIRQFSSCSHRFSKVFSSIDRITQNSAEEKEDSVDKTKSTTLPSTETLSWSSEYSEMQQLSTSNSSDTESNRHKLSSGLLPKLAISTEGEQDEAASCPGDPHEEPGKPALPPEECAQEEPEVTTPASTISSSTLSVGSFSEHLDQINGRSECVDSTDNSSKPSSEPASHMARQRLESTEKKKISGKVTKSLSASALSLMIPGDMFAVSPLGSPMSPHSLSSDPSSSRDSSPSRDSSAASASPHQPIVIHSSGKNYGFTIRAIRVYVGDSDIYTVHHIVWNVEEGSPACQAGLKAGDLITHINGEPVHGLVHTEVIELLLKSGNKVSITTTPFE
kinase domain of Mast4 (O15021, residues 570-843): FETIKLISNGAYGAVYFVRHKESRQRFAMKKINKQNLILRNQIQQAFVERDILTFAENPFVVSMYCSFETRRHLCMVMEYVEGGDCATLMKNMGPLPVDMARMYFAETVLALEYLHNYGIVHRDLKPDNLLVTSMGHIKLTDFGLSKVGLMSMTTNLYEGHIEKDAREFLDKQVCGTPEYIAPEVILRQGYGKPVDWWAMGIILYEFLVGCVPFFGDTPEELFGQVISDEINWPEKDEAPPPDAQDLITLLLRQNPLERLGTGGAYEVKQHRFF
UniProt P84022: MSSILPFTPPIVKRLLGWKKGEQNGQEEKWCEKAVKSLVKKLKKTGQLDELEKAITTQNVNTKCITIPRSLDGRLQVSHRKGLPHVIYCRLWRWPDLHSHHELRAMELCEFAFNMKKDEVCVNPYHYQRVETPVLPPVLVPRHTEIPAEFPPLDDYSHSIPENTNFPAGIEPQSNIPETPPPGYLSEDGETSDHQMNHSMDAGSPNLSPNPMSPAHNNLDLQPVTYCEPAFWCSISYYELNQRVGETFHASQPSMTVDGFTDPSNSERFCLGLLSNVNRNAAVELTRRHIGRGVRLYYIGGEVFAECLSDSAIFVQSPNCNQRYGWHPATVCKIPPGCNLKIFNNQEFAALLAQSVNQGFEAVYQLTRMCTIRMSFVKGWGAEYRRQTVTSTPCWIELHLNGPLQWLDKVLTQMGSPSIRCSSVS
UniProt P49841: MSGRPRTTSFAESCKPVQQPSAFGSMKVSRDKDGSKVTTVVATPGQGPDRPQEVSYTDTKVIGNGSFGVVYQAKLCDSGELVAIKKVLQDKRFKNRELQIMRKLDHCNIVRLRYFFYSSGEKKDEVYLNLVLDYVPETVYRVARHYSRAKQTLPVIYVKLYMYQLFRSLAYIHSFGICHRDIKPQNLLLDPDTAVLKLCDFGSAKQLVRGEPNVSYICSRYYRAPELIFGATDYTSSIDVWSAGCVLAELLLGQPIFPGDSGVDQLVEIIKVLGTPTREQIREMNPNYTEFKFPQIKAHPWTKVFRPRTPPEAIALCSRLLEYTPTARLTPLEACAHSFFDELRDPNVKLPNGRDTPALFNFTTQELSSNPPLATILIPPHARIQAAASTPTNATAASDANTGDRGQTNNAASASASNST
UniProt Q9HCE7: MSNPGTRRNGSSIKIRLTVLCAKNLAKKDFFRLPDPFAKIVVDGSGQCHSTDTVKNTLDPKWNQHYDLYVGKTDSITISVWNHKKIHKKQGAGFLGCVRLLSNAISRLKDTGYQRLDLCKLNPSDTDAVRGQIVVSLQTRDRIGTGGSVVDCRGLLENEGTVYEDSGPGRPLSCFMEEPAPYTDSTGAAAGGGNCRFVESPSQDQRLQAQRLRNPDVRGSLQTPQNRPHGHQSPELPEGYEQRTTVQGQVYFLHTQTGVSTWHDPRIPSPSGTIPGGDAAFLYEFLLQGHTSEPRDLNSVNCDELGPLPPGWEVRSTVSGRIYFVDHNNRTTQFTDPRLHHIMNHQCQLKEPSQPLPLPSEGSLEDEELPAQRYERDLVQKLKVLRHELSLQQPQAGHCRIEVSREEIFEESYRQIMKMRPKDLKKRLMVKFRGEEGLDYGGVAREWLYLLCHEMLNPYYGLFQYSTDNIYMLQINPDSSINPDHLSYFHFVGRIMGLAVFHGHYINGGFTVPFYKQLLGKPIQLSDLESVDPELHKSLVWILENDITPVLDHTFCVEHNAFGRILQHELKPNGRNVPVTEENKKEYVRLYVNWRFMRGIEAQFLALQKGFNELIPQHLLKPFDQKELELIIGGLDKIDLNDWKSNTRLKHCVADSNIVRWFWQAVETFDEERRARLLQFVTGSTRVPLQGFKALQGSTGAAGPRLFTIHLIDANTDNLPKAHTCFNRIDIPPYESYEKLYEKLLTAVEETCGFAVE

Assays:
[1] = biological target: HA-Sox9 (UniProt P48436); assay: co-IP; Sox9 and Smad3 co-transfected to wild-type and Mast4-depleted C3H10T1/2 cells, TGF-β1 5 ng/ml for 30 min; Sox9 immunoprecipitated using HA antibody, GFP-Smad3 detected (Fig. 3a)
[2] = biological target: kinase domain of Mast4 (UniProt O15021); assay: co-IP; Supplementary Fig. 16b, c (blots; legend not shown); mapping of the Mast4 domain that binds GSK-3β and Smurf1
[3] = biological target: Mast4-PDZ (truncated Mast4 construct containing a DUF, kinase, and PDZ domain; a.a.1-a.a.1229) (UniProt O15021); assay: co-IP; Smurf1, Mast4-PDZ and GSK-3β transfected to C3H10T1/2 cells, with CHIR-99021 treatment (10 μM for 9 h); immunoprecipitation assay (Fig. 4f)
[4] = biological target: Sox9 (co-transfected with Mast4-PDZ, Fig. 2e) (UniProt P48436); assay: co-IP; Mast4-PDZ and Sox9 transfected to C3H10T1/2 cells; cell extracts incubated with primary antibody overnight at 4 °C, Dynabeads Protein G, western blot (Fig. 2e)

For GFP-Smad3 (from UniProt P84022 1-425), the binding [1] was “binds”.

In the case of “GSK-3β (from UniProt P49841 1-420) (enzyme)”, the binding [2] is reported as “binds”.

In the case of “Smurf1 (from UniProt Q9HCE7 1-757) (enzyme)”, the binding [3] is reported as “binds” and the binding [2] is reported as “binds”.

For “Mast4-PDZ (truncated Mast4 construct containing a DUF, kinase, and PDZ domain; a.a.1-a.a.1229) (from UniProt O15021 1-1229) (domain or fragment)”, the binding [4] was “binds”.
